# Laboratory results taken from the supplement of paper PMC6411743.
# The chains behind the UniProt entries cited, without tags or fusion partners. Where a name states a change or a piece, a line headed by the entry shows the natural chain unless it says otherwise.
# UniProt Q9H3P2, whole entry: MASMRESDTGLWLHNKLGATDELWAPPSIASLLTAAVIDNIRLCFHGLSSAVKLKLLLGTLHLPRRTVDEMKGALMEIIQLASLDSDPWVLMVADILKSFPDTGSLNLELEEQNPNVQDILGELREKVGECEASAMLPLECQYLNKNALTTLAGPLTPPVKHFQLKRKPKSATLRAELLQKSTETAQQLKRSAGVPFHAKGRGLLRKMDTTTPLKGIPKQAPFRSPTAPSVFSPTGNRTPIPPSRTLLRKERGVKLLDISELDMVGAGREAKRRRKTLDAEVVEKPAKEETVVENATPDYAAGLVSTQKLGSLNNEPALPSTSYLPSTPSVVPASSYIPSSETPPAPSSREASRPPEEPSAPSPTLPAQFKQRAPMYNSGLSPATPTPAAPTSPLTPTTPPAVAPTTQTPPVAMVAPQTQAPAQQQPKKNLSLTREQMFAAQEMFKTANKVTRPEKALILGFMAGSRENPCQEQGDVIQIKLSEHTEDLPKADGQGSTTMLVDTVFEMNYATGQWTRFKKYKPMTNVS
# UniProt Q15025: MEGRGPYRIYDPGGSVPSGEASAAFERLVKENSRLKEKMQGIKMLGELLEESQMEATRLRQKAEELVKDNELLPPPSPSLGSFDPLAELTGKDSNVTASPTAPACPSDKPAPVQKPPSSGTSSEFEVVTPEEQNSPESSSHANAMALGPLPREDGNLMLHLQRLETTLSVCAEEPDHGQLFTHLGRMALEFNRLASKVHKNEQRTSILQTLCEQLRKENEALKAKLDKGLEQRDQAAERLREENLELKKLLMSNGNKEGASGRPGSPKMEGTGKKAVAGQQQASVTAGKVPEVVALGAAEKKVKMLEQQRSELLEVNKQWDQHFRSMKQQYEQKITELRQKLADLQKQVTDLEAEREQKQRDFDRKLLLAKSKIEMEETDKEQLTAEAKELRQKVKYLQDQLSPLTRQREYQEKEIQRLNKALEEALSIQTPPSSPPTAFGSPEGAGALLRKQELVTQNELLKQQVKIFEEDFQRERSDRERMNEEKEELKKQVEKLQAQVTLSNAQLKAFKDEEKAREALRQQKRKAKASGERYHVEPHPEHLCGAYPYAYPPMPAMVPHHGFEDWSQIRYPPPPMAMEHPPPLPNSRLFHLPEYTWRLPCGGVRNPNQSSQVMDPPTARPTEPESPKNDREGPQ
# UniProt Q9Y4X4: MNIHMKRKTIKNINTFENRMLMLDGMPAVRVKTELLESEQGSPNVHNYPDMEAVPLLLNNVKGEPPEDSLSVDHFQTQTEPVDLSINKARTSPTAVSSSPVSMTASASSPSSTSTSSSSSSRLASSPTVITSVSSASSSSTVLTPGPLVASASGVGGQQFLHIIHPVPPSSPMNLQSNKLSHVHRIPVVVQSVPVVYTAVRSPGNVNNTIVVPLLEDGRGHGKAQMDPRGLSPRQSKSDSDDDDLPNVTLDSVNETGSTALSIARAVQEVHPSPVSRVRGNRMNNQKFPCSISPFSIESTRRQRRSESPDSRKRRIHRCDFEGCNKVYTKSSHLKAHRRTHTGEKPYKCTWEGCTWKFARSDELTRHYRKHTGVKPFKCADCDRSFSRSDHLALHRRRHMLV
# UniProt Q6DD87: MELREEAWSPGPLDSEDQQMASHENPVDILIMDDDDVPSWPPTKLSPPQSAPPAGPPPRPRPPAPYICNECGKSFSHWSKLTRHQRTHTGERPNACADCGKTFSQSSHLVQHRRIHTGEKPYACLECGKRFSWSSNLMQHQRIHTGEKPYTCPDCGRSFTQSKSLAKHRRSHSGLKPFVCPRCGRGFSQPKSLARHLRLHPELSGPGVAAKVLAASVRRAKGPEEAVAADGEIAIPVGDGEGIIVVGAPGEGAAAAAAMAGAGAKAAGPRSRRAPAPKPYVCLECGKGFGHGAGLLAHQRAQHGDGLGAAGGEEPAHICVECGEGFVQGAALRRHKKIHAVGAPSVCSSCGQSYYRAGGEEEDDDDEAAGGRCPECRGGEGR
# UniProt Q9P0P8: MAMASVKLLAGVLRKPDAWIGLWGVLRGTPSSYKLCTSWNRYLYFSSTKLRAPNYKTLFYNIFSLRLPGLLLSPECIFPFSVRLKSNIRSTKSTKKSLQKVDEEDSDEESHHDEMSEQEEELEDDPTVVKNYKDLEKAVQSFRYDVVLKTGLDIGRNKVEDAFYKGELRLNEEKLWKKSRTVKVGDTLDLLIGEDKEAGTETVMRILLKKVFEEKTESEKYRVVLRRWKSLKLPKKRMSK
# UniProt P39656: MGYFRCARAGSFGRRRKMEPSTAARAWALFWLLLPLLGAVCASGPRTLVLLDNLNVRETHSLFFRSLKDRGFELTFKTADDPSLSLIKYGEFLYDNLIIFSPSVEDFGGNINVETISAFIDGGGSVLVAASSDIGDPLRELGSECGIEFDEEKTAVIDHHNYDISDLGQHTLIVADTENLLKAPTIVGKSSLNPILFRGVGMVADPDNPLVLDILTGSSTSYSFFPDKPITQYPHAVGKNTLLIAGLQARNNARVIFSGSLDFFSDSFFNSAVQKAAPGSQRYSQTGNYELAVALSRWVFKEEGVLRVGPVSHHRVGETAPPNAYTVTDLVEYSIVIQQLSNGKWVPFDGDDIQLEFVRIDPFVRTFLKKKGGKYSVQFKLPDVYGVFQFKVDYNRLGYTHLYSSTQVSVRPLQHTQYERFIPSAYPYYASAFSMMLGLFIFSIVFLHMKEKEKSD
# UniProt Q15185: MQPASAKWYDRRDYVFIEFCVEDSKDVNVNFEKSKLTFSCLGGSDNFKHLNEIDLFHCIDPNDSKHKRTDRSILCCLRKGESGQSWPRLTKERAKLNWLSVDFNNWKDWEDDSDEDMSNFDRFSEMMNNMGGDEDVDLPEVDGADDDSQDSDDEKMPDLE
# UniProt Q8IZQ5, whole entry, looked up: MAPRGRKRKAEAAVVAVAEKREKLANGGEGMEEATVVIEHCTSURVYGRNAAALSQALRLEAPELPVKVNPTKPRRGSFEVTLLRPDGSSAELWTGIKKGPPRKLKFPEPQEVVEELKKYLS
# UniProt Q96I15: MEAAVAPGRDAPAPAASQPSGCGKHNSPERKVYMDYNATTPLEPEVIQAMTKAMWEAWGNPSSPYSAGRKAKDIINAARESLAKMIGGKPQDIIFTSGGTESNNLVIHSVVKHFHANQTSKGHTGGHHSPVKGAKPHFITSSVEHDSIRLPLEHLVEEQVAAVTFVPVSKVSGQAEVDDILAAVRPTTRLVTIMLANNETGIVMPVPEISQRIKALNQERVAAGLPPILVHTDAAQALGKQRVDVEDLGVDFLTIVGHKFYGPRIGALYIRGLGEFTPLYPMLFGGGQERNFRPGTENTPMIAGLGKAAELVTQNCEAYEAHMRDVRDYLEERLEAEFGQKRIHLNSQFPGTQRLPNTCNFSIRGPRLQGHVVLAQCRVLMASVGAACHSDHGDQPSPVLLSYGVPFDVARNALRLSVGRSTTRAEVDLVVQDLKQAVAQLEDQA
# UniProt Q70IA6: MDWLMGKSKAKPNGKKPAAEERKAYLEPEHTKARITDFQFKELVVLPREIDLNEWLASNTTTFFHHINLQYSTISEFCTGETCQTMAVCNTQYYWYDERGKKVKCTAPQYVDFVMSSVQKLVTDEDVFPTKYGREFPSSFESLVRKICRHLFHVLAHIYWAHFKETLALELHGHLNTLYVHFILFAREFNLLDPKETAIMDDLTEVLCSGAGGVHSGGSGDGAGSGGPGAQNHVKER
# UniProt P62333, whole entry: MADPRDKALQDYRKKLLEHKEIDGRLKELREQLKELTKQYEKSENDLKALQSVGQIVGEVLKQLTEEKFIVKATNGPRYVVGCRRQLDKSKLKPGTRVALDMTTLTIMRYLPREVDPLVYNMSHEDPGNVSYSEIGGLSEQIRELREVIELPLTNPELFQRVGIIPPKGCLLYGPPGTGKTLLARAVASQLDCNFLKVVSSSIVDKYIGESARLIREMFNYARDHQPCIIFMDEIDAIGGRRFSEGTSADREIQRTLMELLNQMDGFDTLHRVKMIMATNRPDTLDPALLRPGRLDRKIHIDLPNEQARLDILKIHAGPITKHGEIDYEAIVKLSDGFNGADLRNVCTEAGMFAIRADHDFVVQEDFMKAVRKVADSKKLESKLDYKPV
# UniProt P55198: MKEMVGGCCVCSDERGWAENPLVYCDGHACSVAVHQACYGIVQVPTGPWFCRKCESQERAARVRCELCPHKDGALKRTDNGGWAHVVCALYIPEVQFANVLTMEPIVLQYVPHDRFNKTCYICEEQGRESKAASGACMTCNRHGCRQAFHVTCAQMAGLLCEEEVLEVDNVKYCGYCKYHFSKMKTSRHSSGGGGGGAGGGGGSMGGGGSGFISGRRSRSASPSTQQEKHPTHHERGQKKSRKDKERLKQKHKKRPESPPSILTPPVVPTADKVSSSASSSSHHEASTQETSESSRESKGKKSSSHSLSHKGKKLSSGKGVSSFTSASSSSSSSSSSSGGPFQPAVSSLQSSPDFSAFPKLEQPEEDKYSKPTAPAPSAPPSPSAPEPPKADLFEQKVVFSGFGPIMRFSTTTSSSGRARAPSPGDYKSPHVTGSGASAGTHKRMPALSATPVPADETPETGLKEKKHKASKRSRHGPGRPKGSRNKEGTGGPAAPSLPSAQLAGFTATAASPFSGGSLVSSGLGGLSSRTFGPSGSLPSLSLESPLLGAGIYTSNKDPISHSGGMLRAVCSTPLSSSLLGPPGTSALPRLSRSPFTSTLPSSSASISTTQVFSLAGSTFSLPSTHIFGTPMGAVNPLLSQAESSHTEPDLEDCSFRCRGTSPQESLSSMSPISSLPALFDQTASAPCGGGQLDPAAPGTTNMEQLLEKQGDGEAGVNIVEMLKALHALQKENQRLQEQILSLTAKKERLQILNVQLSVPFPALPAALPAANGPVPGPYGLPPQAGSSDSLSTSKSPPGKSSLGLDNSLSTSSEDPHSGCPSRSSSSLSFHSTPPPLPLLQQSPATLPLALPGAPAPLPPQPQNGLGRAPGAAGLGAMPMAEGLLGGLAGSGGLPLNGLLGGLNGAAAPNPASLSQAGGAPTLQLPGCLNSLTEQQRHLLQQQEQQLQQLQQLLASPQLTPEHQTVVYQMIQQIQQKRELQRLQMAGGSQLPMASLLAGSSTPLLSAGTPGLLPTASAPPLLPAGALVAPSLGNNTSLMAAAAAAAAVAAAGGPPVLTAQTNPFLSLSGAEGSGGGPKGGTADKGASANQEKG
# UniProt Q9UHJ6: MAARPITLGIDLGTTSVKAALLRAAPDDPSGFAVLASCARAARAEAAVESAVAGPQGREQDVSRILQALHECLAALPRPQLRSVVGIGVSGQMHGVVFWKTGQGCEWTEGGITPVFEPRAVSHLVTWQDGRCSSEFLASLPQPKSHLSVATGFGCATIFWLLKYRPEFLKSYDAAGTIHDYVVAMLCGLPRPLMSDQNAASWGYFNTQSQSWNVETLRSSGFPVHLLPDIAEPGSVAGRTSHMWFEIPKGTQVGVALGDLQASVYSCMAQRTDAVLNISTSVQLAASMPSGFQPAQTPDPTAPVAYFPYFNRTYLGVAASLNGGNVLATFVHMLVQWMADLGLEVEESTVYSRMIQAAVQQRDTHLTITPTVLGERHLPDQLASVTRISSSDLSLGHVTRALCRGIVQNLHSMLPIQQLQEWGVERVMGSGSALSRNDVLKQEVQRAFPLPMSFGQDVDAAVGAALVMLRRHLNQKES
# UniProt Q8IW50: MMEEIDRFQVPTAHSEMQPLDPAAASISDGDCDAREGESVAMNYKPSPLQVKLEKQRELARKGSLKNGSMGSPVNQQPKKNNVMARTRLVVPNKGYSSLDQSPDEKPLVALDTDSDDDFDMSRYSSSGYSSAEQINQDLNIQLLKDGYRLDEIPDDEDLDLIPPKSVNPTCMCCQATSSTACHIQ
# UniProt O15315: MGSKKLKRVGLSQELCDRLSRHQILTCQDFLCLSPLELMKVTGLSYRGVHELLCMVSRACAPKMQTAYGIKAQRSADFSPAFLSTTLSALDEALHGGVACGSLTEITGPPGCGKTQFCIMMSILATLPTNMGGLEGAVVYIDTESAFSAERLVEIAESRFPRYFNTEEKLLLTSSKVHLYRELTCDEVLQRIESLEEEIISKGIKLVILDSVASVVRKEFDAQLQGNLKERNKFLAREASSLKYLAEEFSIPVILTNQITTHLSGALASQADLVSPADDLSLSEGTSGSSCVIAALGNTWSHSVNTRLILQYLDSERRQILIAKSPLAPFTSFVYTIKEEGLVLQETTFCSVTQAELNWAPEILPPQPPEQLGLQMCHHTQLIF
# UniProt Q5T7M9: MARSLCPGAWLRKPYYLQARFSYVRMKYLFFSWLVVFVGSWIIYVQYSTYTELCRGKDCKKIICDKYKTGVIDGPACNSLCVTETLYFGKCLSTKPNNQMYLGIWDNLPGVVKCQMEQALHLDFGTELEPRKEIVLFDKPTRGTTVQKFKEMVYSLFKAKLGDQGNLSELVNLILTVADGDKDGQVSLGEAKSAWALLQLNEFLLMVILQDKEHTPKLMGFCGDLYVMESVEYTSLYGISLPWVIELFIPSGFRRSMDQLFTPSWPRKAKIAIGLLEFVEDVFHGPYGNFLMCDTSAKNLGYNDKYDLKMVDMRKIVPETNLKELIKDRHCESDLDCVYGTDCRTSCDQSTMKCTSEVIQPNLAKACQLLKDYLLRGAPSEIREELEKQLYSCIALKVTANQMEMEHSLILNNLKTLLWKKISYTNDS
# ± gives the standard deviation of the averaged measurements. The entries are a selection whose mix differs from that of the whole data set.
# Compound: Nc1ncnc2c1ncn2[C@@H]1O[C@H](COP(=O)(O)OP(=O)(O)OP(=O)(O)O)[C@@H](O)[C@H]1O [adenosine triphosphate]
# Assay: NP40-soluble protein abundance relative to vehicle (solubility fold change) (ratio); higher = more soluble protein in presence of ATP
# Conditions: concentration: 8mM
# Procedure, shortened: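 Values are fold changes against the detergent-processed vehicle, based on vsn-normalised intensities. Jurkat crude lysate was treated at eight concentrations from 0.1 to 10 mM (10 min at room temperature, then 3 min at 37 °C), solubilised with 0.8% NP40 and benzonase, ultracentrifuged and analysed by TMT-labelled LC-MS/MS over three independent experiments.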
row,Target,NP40-soluble protein abundance
1,A0A0C4DFX9|Q9H3P2 (UniProt Q9H3P2),0.929 ± 0.041
2,A0A075B7B5|A2RUF3 and related entries (UniProt O75044),1.032 ± 0.0069
3,A0A0A0MRZ4|E7EMV7 and related entries (UniProt Q15025),0.968 ± 0.069
4,A0A0A0MRU8|Q9Y4X4 (UniProt Q9Y4X4),0.968 ± 0.13
5,A0A087WUD1 (UniProt Q6DD87),0.965 ± 0.014
6,A0A0D9SEI0|Q9P0P8 (UniProt Q9P0P8),0.97 ± 0.12
7,A0A0C4DGS1|P39656 (UniProt P39656),0.999 ± 0.067
8,A0A0A0MTB0|A0A0J9YYI4|D6RHG7 and related entries (UniProt Q86VE9),0.995 ± 0.15
9,A0A087WYT3|Q15185 (UniProt Q15185),0.862 ± 0.049
10,A0A087WYP2|Q8IZQ5 (UniProt Q8IZQ5),1.13 ± 0.042
11,A0A0A0MQU4|Q96I15 (UniProt Q96I15),0.988 ± 0.018
12,A0A087WVS8|Q70IA6 and related entries (UniProt Q70IA6),0.949 ± 0.028
13,A0A087X2I1|P62333 (UniProt P62333),0.895 ± 0.038
14,A0A087WW39|P55198 (UniProt P55198),1.24 ± 0.11
15,A0A0A0MSK6|Q13017 and related entries (UniProt Q13017),1.05 ± 0.078
16,A0A0B4J2A0|Q9UHJ6 (UniProt Q9UHJ6),0.94 ± 0.029
17,A0A0A0MRW1|Q5T593 and related entries (UniProt Q8IW50),0.858 ± 0.044
18,A0A0A0MS18|C9JYJ0 and related entries (UniProt O15315),1.15 ± 0.11
19,A0A087WZ97|A0A087WZK6|A0A087X2C2|Q5T7M9 (UniProt Q5T7M9),0.985 ± 0.04

# Random excerpt: 2 entries already listed.
row,Target,NP40-soluble protein abundance
2,A0A075B7B5|A2RUF3 and related entries (UniProt O75044),1.032 ± 0.0069
12,A0A087WVS8|Q70IA6 and related entries (UniProt Q70IA6),0.949 ± 0.028
